# In PMC2199960:
# Biological target: collagen XII, large variant (large subunit, 320 kD) (chick) (UniProt P13944)
# Test: electron microscopy
substance,measurement,value
"collagen XII, large variant (large subunit, 320 kD), P13944 24-3124",stoichiometry N,3
